According to article doi:10.1101/2024.09.09.612066:
Results are given in words; binding and its absence hold for the method and conditions named. Binding seen in cells or lysates may run through a third protein. Binding calls can cover weak binding; strength is not graded here.

How the values were obtained:
Assay in all cases: split reporter
[1] = target: T1, BIM1-CFPc (BiFC) (Arabidopsis) (UniProt Q9LEZ3)
T1 sequence: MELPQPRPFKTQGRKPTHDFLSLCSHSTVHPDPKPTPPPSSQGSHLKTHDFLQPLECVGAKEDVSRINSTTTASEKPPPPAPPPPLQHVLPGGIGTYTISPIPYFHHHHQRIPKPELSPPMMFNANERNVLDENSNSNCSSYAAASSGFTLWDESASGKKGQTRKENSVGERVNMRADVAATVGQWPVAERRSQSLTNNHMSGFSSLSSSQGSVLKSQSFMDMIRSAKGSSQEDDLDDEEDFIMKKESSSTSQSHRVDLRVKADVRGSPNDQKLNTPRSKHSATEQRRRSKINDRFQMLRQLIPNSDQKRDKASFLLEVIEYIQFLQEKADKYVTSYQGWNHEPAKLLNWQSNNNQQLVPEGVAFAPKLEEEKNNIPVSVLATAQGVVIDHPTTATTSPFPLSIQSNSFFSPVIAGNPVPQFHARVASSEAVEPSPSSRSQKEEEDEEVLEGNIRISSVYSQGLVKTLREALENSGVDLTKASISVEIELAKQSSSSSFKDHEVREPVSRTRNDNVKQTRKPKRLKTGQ

[2] = target: T2, BIM2-YFPc (BiFC) (Arabidopsis) (UniProt Q9CAA4)
T2 sequence: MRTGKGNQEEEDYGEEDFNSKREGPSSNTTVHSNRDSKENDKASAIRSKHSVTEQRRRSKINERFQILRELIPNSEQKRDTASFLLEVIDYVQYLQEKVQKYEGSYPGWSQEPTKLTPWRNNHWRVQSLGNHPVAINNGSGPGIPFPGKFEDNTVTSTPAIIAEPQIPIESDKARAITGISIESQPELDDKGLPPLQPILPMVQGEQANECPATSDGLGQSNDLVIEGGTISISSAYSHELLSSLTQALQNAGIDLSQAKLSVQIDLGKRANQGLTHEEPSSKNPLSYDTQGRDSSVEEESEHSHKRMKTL

[3] = target: T3, BIM3-YFPc (BiFC) (Arabidopsis) (UniProt Q9FMB6)
T3 sequence: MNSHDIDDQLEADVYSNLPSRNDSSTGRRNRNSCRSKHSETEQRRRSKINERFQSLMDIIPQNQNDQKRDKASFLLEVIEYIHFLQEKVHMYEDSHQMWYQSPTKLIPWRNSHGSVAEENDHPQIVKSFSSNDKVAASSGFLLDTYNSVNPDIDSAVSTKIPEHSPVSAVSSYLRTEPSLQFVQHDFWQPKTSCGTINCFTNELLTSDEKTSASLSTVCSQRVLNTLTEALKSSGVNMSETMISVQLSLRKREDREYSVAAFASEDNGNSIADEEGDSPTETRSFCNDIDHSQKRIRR

Substance	binding [1]	binding [2]	binding [3]
YFPn-HaRxL106 FL (BiFC) (Hyaloperonospora arabidopsidis)	binds	binds	binds
YFPn-HaRxL106 ΔC (BiFC) (SV40 | Hyaloperonospora arabidopsidis) (domain or fragment)	binds		
